5 molecules from publication PMC9270398 can be followed below.

Protein sequences, listed by entry. Tags and fused reporters are not part of them.
UniProt Q8NDV7: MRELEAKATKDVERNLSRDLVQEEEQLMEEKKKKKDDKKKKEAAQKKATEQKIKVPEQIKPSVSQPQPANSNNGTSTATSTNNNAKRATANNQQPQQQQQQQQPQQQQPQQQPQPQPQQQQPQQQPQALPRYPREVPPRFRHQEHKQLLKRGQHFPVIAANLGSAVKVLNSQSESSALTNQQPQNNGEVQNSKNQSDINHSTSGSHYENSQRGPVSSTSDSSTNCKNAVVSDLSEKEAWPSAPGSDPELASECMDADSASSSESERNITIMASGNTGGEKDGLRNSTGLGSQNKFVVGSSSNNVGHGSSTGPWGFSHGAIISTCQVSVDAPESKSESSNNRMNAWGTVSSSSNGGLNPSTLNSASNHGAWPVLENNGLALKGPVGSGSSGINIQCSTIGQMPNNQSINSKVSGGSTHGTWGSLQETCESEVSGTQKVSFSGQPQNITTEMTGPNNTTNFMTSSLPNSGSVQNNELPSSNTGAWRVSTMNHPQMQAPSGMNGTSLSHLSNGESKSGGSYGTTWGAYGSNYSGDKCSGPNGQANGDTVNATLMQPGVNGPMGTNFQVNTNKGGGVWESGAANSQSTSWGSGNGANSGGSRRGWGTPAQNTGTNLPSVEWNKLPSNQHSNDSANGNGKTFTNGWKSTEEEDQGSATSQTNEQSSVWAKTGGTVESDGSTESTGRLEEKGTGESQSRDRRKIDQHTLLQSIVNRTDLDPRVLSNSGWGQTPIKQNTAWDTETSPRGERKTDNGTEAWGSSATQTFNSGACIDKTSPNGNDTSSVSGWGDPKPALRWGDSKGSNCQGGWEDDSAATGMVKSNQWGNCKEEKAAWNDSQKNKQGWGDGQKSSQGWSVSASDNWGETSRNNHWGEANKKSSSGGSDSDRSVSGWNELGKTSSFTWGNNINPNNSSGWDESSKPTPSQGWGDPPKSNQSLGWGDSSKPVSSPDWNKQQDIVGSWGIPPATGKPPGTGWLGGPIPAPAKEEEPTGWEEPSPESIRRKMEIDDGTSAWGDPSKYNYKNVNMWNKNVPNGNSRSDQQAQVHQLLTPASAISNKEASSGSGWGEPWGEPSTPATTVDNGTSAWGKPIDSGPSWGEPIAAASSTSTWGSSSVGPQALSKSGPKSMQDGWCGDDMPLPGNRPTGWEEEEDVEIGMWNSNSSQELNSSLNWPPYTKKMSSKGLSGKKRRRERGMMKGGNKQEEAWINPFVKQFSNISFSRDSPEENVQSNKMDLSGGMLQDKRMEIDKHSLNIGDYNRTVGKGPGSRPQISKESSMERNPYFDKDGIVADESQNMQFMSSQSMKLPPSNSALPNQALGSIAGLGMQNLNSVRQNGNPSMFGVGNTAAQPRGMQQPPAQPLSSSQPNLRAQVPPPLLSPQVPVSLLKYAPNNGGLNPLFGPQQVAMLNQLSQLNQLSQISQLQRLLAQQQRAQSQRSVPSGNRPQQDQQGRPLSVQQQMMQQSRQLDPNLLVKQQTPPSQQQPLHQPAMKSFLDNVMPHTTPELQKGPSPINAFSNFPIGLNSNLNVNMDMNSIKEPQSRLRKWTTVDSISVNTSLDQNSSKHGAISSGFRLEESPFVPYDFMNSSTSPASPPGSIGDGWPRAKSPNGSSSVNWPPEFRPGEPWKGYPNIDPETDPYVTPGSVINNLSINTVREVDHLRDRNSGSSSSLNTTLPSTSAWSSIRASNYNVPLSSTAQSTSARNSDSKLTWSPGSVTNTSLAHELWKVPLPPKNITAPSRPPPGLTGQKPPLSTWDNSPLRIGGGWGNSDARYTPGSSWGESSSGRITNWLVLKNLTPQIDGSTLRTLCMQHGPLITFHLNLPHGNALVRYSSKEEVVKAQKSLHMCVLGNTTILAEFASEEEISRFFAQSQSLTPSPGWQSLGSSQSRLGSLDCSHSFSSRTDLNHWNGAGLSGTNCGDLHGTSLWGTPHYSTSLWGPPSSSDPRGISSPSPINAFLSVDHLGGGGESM

For assay [1], the target named is T1, GFP-TRIM24 fusion protein (tripartite motif-containing 24) (not stated (human or mouse cDNA cloned)) (UniProt O15164).
T1 sequence: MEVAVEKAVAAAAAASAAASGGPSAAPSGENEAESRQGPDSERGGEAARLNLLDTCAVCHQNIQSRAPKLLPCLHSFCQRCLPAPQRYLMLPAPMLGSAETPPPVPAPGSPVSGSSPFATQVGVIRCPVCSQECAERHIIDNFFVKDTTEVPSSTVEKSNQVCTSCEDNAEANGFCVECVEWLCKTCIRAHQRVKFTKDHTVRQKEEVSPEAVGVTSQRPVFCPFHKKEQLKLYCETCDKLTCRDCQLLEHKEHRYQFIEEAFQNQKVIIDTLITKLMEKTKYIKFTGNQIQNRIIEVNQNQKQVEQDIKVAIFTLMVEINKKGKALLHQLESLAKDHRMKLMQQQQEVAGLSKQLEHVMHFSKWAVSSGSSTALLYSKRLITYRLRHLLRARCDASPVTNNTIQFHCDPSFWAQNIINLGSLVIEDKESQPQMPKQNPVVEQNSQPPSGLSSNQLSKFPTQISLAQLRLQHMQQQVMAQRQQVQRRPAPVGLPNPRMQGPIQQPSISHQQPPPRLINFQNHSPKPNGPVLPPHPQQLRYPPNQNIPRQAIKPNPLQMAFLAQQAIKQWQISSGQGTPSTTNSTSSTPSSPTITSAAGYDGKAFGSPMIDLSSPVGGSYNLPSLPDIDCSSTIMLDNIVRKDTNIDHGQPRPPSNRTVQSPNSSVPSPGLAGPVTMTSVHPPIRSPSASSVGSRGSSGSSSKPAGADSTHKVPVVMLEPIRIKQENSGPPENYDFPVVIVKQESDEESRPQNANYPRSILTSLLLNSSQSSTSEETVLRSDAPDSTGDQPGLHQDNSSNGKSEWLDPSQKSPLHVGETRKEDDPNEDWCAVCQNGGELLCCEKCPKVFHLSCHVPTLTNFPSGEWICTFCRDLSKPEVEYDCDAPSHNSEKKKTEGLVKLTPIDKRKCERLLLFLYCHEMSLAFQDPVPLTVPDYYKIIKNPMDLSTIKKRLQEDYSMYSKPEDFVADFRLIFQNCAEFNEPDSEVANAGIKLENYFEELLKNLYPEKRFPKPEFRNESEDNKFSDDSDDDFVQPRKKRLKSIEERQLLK
In words: co-IP; GFP-TRIM24 expressed in HEK293 cells, immunoprecipitated with the GFP antibody; endogenous P-body components detected by immunoblotting.

The target of assay [2] is T1, GFP-TRIM24 fusion protein (tripartite motif-containing 24) (not stated (human or mouse cDNA cloned)). The assay is described as follows: co-IP; Flag- or Myc-tagged protein co-expressed with GFP-TRIM24 in HEK293 cells; immunoprecipitation with the GFP antibody (control IgG or no GFP-TRIM24), immunoblotting. For orientation: Immunoblotting shows a protein as a band on a membrane.

No constants are given. Whether binding was seen depends on the method and setting. Binding seen in cells or lysates may run through a third protein. Some results given as binding are weak or reduced against the parent protein; the word gives no strength. Sequences can lack the tags named with a protein.

In the case of “GW182 protein, endogenous in HEK293 cells (from UniProt Q8NDV7 1-1962)”, the binding entry in assay [1] is “binds”. For the molecule Flag-AGO2 (from UniProt Q9UKV8-1 1-859), the binding result in assay [2] was “binds”. Consider Myc-AGO1 (from UniProt Q9UL18 1-857), for which the binding result in assay [2] was “binds”.

B1: Flag-EDC4 (protein, UniProt Q6P2E9-1 1-1401)
chain: MASCASIDIEDATQHLRDILKLDRPAGGPSAESPRPSSAYNGDLNGLLVPDPLCSGDSTSANKTGLRTMPPINLQEKQVICLSGDDSSTCIGILAKEVEIVASSDSSISSKARGSNKVKIQPVAKYDWEQKYYYGNLIAVSNSFLAYAIRAANNGSAMVRVISVSTSERTLLKGFTGSVADLAFAHLNSPQLACLDEAGNLFVWRLALVNGKIQEEILVHIRQPEGTPLNHFRRIIWCPFIPEESEDCCEESSPTVALLHEDRAEVWDLDMLRSSHSTWPVDVSQIKQGFIVVKGHSTCLSEGALSPDGTVLATASHDGYVKFWQIYIEGQDEPRCLHEWKPHDGRPLSCLLFCDNHKKQDPDVPFWRFLITGADQNRELKMWCTVSWTCLQTIRFSPDIFSSVSVPPSLKVCLDLSAEYLILSDVQRKVLYVMELLQNQEEGHACFSSISEFLLTHPVLSFGIQVVSRCRLRHTEVLPAEEENDSLGADGTHGAGAMESAAGVLIKLFCVHTKALQDVQIRFQPQLNPDVVAPLPTHTAHEDFTFGESRPELGSEGLGSAAHGSQPDLRRIVELPAPADFLSLSSETKPKLMTPDAFMTPSASLQQITASPSSSSSGSSSSSSSSSSSLTAVSAMSSTSAVDPSLTRPPEELTLSPKLQLDGSLTMSSSGSLQASPRGLLPGLLPAPADKLTPKGPGQVPTATSALSLELQEVEPLGLPQASPSRTRSPDVISSASTALSQDIPEIASEALSRGFGSSAPEGLEPDSMASAASALHLLSPRPRPGPELGPQLGLDGGPGDGDRHNTPSLLEAALTQEASTPDSQVWPTAPDITRETCSTLAESPRNGLQEKHKSLAFHRPPYHLLQQRDSQDASAEQSDHDDEVASLASASGGFGTKVPAPRLPAKDWKTKGSPRTSPKLKRKSKKDDGDAAMGSRLTEHQVAEPPEDWPALIWQQQRELAELRHSQEELLQRLCTQLEGLQSTVTGHVERALETRHEQEQRRLERALAEGQQRGGQLQEQLTQQLSQALSSAVAGRLERSIRDEIKKTVPPCVSRSLEPMAGQLSNSVATKLTAVEGSMKENISKLLKSKNLTDAIARAAADTLQGPMQAAYREAFQSVVLPAFEKSCQAMFQQINDSFRLGTQEYLQQLESHMKSRKAREQEAREPVLAQLRGLVSTLQSATEQMAATVAGSVRAEVQHQLHVAVGSLQESILAQVQRIVKGEVSVALKEQQAAVTSSIMQAMRSAAGTPVPSAHLDCQAQQAHILQLLQQGHLNQAFQQALTAADLNLVLYVCETVDPAQVFGQPPCPLSQPVLLSLIQQLASDLGTRTDLKLSYLEEAVMHLDHSDPITRDHMGSVMAQVRQKLFQFLQAEPHNSLGKAARRLSLMLHGLVTPSLP
Regarding B1, the binding entry in assay [2] was “binds”.

B2: Flag-EDC4^M1-H538 fragment (contains the WD40 domain) (domain or fragment, UniProt Q6P2E9-1 1-538)
chain: MASCASIDIEDATQHLRDILKLDRPAGGPSAESPRPSSAYNGDLNGLLVPDPLCSGDSTSANKTGLRTMPPINLQEKQVICLSGDDSSTCIGILAKEVEIVASSDSSISSKARGSNKVKIQPVAKYDWEQKYYYGNLIAVSNSFLAYAIRAANNGSAMVRVISVSTSERTLLKGFTGSVADLAFAHLNSPQLACLDEAGNLFVWRLALVNGKIQEEILVHIRQPEGTPLNHFRRIIWCPFIPEESEDCCEESSPTVALLHEDRAEVWDLDMLRSSHSTWPVDVSQIKQGFIVVKGHSTCLSEGALSPDGTVLATASHDGYVKFWQIYIEGQDEPRCLHEWKPHDGRPLSCLLFCDNHKKQDPDVPFWRFLITGADQNRELKMWCTVSWTCLQTIRFSPDIFSSVSVPPSLKVCLDLSAEYLILSDVQRKVLYVMELLQNQEEGHACFSSISEFLLTHPVLSFGIQVVSRCRLRHTEVLPAEEENDSLGADGTHGAGAMESAAGVLIKLFCVHTKALQDVQIRFQPQLNPDVVAPLPTH
As for B2, in assay [2], the binding result is “binds”.
